Assay results as given in PubChem BioAssay AID266 (DTP/NCI, 2004).
The list does not hold the whole screen: it is rich in T/C values a quarter to a half above the control, in often repeated tests (any T/C) and in doses without a T/C. Further doses and runs are listed elsewhere. T/C is the treated group as % of the vehicle group. Schedules are NCI's codes, taken here to give the interval after Q, in days (D) or hours (H), and the number of doses after X. Some T/C values are followed by the survivors on the day toxicity was checked, most often the fifth; without a count, all were alive then. Some entries give survivors of the animals treated and no T/C: the source holds a T/C of zero for them, seemingly a mark for toxic or unscored doses. Survivors were counted at the toxicity check, usually on the fifth day, unless a day is given; later deaths do not show. Some entries hold several experiments; their values stand side by side, smallest first.

Test system: Nude mice, LX-1 lung xenograft intrarenal, tumor weight T/C
Experiment: NCI In Vivo Anticancer Drug Screen. Data for tumor model Human Lung LX-1 Xenograft (intrarenal inoculation) in NU/NU BALB/C (nude) mice
Details: T/C endpoint: mean tumor weight change, higher T/C = larger tumour; for T/C: evaluated on day 11
Description: The antitumor activity of compounds was measured in mice bearing transplantable tumors. Survival or tumor size were measured and the results are expressed as the measurement made in the treated group (T) divided by the measurement made in the vehicle treated control group (C). The tumor model used in this assay is Human Lung LX-1 Xenograft (intrarenal inoculation) in NU/NU BALB/C (nude) mice

[1] = dose: 200.0 mg/kg/injection, schedule: Q01DX010 (sc), vehicle: Klucel (hydroxypropylcellulose) (HPC)
[2] = dose: 400.0 mg/kg/injection, schedule: Q01DX010 (sc), vehicle: Klucel (hydroxypropylcellulose) (HPC)
[3] = dose: 300.0 mg/kg/injection, schedule: Q04DX003 (sc), vehicle: saline with Tween-80
[4] = dose: 800.0 mg/kg/injection, schedule: Q04DX003 (sc), vehicle: saline with Tween-80
[5] = dose: 600.0 mg/kg/injection, schedule: Q04DX003 (sc), vehicle: saline with Tween-80
[6] = dose: 12.5 mg/kg/injection, schedule: Q01DX010 (sc), vehicle: saline

For `CCCNC1=C(C)C(=O)C2=C(C1=O)[C@H](COC(N)=O)[C@]1(OC)[C@@H]3N[C@@H]3CN21`, the survivor count (dose: 36.0 mg/kg/injection, schedule: Q04DX003 (sc), vehicle: saline + alcohol) was 0 of 6 on day 11 and the survivor count (dose: 48.0 mg/kg/injection, schedule: Q04DX003 (sc), vehicle: saline + alcohol) was 0 of 6 on day 11.

`CNc1nc(NC)nc(NC)n1` was tested, and the T/C (dose: 12.5 mg/kg/injection, schedule: Q01DX010 (sc), vehicle: Klucel (hydroxypropylcellulose) (HPC)) was 143 % of control [2 of 2 alive on day 11], the T/C (dose: 50.0 mg/kg/injection, schedule: Q01DX010 (sc), vehicle: Klucel (hydroxypropylcellulose) (HPC)) was 134 % of control [2 of 2 alive on day 11] and the survivor count [1] was 1 of 2 on day 11. The survivor count [2] was 0 of 2 on day 11.

For `COc1cccc2c1C(=O)c1c(O)c3c(c(O)c1C2=O)C[C@@](O)(C(C)=O)C[C@@H]3OC1CC(N)C(O)C(C)O1` (some centres undefined), the survivor count (dose: 16.0 mg/kg/injection, schedule: Q01DX010 (sc), vehicle: saline) was 0 of 3 on day 11.

With `C=COC(=O)C(Cc1ccccc1)NC(=O)OCc1ccccc1` (centres undefined) the survivor count (dose: 2400.0 mg/kg/injection, schedule: Q04DX003 (sc), vehicle: saline with Tween-80) was 0 of 6 on day 11.

In the case of `CC(=O)C(O)N1C(=O)C=CC1=O` (centres undefined), the survivor count (dose: 20.0 mg/kg/injection, schedule: Q01DX010 (sc), vehicle: saline) is reported as 0 of 3 on day 11.

For `O=S(=O)(N=N/C=C1\C=CC=CN1O)c1cccs1`, the survivor count [3] was 3 of 5 on day 11.

With `CCCCCn1c(C)cc(/C=C\c2ccc3cc(C)ccc3[n+]2C)c1C` the T/C (dose: 0.5 mg/kg/injection, schedule: Q01DX010 (sc), vehicle: Klucel (hydroxypropylcellulose) (HPC)) was 132 % of control.

`C[Si](C)(C)O/C=C1\CCCCC1=O` was tested, and the T/C (dose: 400.0 mg/kg/injection, schedule: Q04DX003 (sc), vehicle: saline with Tween-80) was 142 % of control and the T/C [4] was 142 % of control.

`CCN(CC)Cc1cc2[nH]c3c4ccc(Cl)cc4ncc3c2cc1OC` was tested, and the survivor count [5] was 0 of 6 on day 11.

In the case of `CO[C@H](/C(C)=C/C=C/C(C)=C/c1coc(C)n1)[C@H](C)[C@H]1C[C@@H](O)[C@@]2(C)O[C@H]2/C=C/[C@@H](C)[C@@H]2C[C@@H](CC(=O)O2)C[C@H]2O[C@@H]2C(=O)O1`, the survivor count (dose: 0.5 mg/kg/injection, schedule: Q04DX003 (sc), vehicle: Klucel (hydroxypropylcellulose) (HPC)) is reported as 3 of 6 on day 11 and the survivor count (dose: 1.0 mg/kg/injection, schedule: Q04DX003 (sc), vehicle: Klucel (hydroxypropylcellulose) (HPC)) is reported as 0 of 6 on day 11.

`[N-]=[N+]=CC(=O)CCC(N)C(=O)O` (centres undefined) was tested, and the survivor count (dose: 0.8 mg/kg/injection, schedule: Q01DX010 (sc), vehicle: saline) was 0 of 2 on day 11, the survivor count (dose: 3.13 mg/kg/injection, schedule: Q01DX010 (sc), vehicle: saline) was 0 of 2 on day 11 and the survivor count (dose: 6.25 mg/kg/injection, schedule: Q01DX010 (sc), vehicle: saline) was 0 of 2 on day 11. For the same molecule, the survivor count [6] was 0 of 2 on day 11, the survivor count (dose: 25.0 mg/kg/injection, schedule: Q01DX010 (sc), vehicle: saline) was 0 of 2 on day 11 and the survivor count (dose: 50.0 mg/kg/injection, schedule: Q01DX010 (sc), vehicle: saline) was 0 of 2 on day 11. The survivor count (dose: 100.0 mg/kg/injection, schedule: Q01DX010 (sc), vehicle: saline) was 0 of 2 on day 11.

In the case of `CN(C)N=Nc1ccc(C(N)=O)cc1`, the survivor count (dose: 400.0 mg/kg/injection, schedule: Q04DX003 (ip), vehicle: saline with Tween-80) is reported as 2 of 6 on day 11 and 3 of 6 on day 11.

`O=C1NC(=O)NC(C(=O)O)N1` was tested, and the T/C (dose: 800.0 mg/kg/injection, schedule: Q04DX003 (sc), vehicle: Klucel (hydroxypropylcellulose) (HPC)) was 140 % of control.

For `CC[C@]1(O)C[C@H]2CN(CCc3c([nH]c4ccccc34)[C@@](C(=O)OC)(c3cc4c(cc3OC)N(C=O)[C@H]3[C@@](O)(C(=O)OC)[C@H](OC(C)=O)[C@]5(CC)C=CCN6CC[C@]43[C@@H]65)C2)C1`, the survivor count (dose: 1.0 mg/kg/injection, schedule: Q01DX010 (sc), vehicle: saline) was 0 of 3 on day 11.

`C[n+]1c(-c2cccc3ccccc23)c2cc(N)ccc2c2ccccc21` was tested, and the T/C (dose: 3.0 mg/kg/injection, schedule: Q04DX003 (sc), vehicle: saline) was 126 % of control and the survivor count (dose: 96.0 mg/kg/injection, schedule: Q04DX003 (sc), vehicle: saline) was 0 of 6 on day 11.

With `COc1ccc(N=N/N=c2\sc3cc(OC)ccc3n2C)cc1` the survivor count (dose: 600.0 mg/kg/injection, schedule: Q04DX003 (ip), vehicle: saline with Tween-80) was 0 of 6 on day 11.

In the case of `CN(C)c1ccc2c(NCCCCCCNc3ccnc4cc(N(C)C)ccc34)ccnc2c1`, the survivor count (dose: 300.0 mg/kg/injection, schedule: Q04DX003 (sc), vehicle: distilled water + Tween-80 + alcohol) is reported as 0 of 6 on day 11.

With `C/C=C(\C)c1cc(=O)c2c(C)cc3c(c2o1)C(=O)c1c(O)c(C2CC(C)(N(C)C)C(OC(C)=O)C(C)O2)cc(C2CC(N(C)C)C(O)C(C)O2)c1C3=O` (centres undefined) the survivor count (dose: 10.0 mg/kg/injection, schedule: Q04DX003 (sc), vehicle: saline) was 3 of 5 on day 11, the survivor count (dose: 20.0 mg/kg/injection, schedule: Q04DX003 (sc), vehicle: saline) was 2 of 6 on day 11 and the survivor count (dose: 40.0 mg/kg/injection, schedule: Q04DX003 (sc), vehicle: saline) was 0 of 6 on day 11. The survivor count (dose: 80.0 mg/kg/injection, schedule: Q04DX003 (sc), vehicle: saline) was 0 of 6 on day 11.

With `CN1CCc2c(c3ccccc3c3ccccc23)C1` the survivor count (dose: 1200.0 mg/kg/injection, schedule: Q04DX003 (sc), vehicle: Klucel (hydroxypropylcellulose) (HPC)) was 1 of 6 on day 11.

`CN(CO)c1nc(N(C)CO)nc(N(C)CO)n1` was tested, and the T/C [6] was 131 % of control [2 of 2 alive on day 11] and the survivor count (dose: 200.0 mg/kg/injection, schedule: Q01DX010 (sc), vehicle: saline) was 0 of 2 on day 11.

`CCS/C(SC)=C(/c1ccccc1)[P+](c1ccccc1)(c1ccccc1)c1ccccc1` was tested, and the survivor count (dose: 75.0 mg/kg/injection, schedule: Q04DX003 (sc), vehicle: Klucel (hydroxypropylcellulose) (HPC)) was 1 of 6 on day 11.

In the case of `CC1=C2CC(C)(C)/C=C\C(=O)/C(C)=C\C3=C[C@H](C)C[C@]3(O2)C1=O`, the T/C (dose: 48.0 mg/kg/injection, schedule: Q01DX010 (sc), vehicle: Klucel (hydroxypropylcellulose) (HPC)) is reported as 141 % of control [2 of 3 alive on day 11], the survivor count (dose: 100.0 mg/kg/injection, schedule: Q01DX010 (sc), vehicle: Klucel (hydroxypropylcellulose) (HPC)) is reported as 1 of 3 on day 11 and the survivor count [1] is reported as 0 of 3 on day 11. For the same molecule, the survivor count [2] was 0 of 3 on day 11.

For `O=C1N=C(Oc2ccccc2)SC1=O`, the survivor count [4] was 2 of 6 on day 11.

For `CC(=O)N(C)O`, the survivor count [3] was 1 of 6 on day 11, the survivor count [5] was 1 of 6 on day 11 and the survivor count (dose: 1200.0 mg/kg/injection, schedule: Q04DX003 (sc), vehicle: saline with Tween-80) was 0 of 6 on day 11.

For `CC1=C(/C=C/C(C)=C/C=C/C(C)=C/C(=O)O)C(C)(C)CCC1`, the survivor count (dose: 100.0 mg/kg/injection, schedule: Q01DX010 (sc), vehicle: saline with Tween-80) was 1 of 3 on day 11, the survivor count (dose: 200.0 mg/kg/injection, schedule: Q01DX010 (sc), vehicle: saline with Tween-80) was 0 of 3 on day 11 and the survivor count (dose: 400.0 mg/kg/injection, schedule: Q01DX010 (sc), vehicle: saline with Tween-80) was 0 of 3 on day 11.

`Cc1cc(=NO)cc(C)n1O` was tested, and the survivor count (dose: 2400.0 mg/kg/injection, schedule: Q04DX003 (sc), vehicle: distilled water + alcohol) was 2 of 6 on day 11.

`O=NN(CCCl)C(=O)NC1CCC(=O)NC1=O` (centres undefined) was tested, and the survivor count (dose: 41.6 mg/kg/injection, schedule: Q04DX003 (sc), vehicle: saline with Tween-80) was 0 of 3 on day 11.

`Nc1nnc[se]1` was tested, and the survivor count [4] was 1 of 6 on day 11.

`O=C(NO)c1ccccc1` was tested, and the survivor count [2] was 1 of 3 on day 11 and the survivor count (dose: 800.0 mg/kg/injection, schedule: Q01DX010 (sc), vehicle: Klucel (hydroxypropylcellulose) (HPC)) was 0 of 3 on day 11.
